The target in experiment [1] is NKG2D-His (UniProt P26718). Description: ELISA: NKG2D-His coated, MICA/B-ECD titrated, detection 1D5 + anti-hFc-HRP. On the technique in general: In an ELISA, binding on a coated surface is turned into a signal by an enzyme label.
Experiment [2] has as its target NKG2D-His (UniProt P26718). Description: ELISA, NKG2D-His coated, titrated MICA/B-ECD, detection with 1D5.

Amino acid sequences for entries named in this document (tags omitted). Residues count along the entry.
UniProt P26718, residues 78-216: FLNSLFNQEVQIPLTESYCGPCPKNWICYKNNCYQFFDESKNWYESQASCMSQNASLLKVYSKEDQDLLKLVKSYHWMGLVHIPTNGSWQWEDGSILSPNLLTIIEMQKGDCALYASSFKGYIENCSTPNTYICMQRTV

No constants are given. Whether binding was seen depends on the method and setting. Some results given as binding are weak or reduced against the parent protein; the word gives no strength. Where a sequence is shown, tags or fusion partners need not be part of it.

B1: MICA002-ECD-HISAvi (ligand)
chain: EPHSLRYNLTVLSGDGSVQSGFLAEVHLDGQPFLRCDRQKCRAKPQGQWAEDVLGNKTWDRETRDLTGNGKDLRMTLAHIKDQKEGLHSLQEIRVCEIHEDNSTRSSQHFYYDGELFLSQNLETEEWTMPQSSRAQTLAMNVRNFLKEDAMKTKTHYHAMHADCLQELRRYLKSGVVLRRTVPPMVNVTRSEASEGNITVTCRASGFYPWNITLSWRQDGVSLSHDTQQWGDVLPDGNGTYQTWVATRICQGEEQRFTCYMEHSGNHSTHPVPSGKVLVLQSHWQHHHHHHGLNDIFEAQKIEWHE
Take B1: the binding entry with NKG2D-His [1] is given as “binds”.

B2: MICB005-ECD-HISAvi (ligand)
chain: EPHSLRYNLMVLSQDGSVQSGFLAEGHLDGQPFLRYDRQKRRAKPQGQWAEDVLGAKTWDTETEDLTENGQDLRRTLTHIKDQKGGLHSLQEIRVCEIHEDSSTRGSRHFYYDGELFLSQNLETQESTVPQSSRAQTLAMNVTNFWKEDAMKTKTHYRAMQADCLQKLQRYLKSGVAIRRTVPPMVNVTCSEVSEGNITVTCRASSFYPRNITLTWRQDGVSLSHNTQQWGDVLPDGNGTYQTWVATRIRQGEEQRFTCYMEHSGNHGTHPVPSGKALVLQSQRTDHHHHHHGLNDIFEAQKIEWHE
Take B2: the binding result in the experiment with NKG2D-His [2] and in the experiment with NKG2D-His [1] was “binds” throughout.

These data come from patent US20250368742A1.
